Reference: article PMC8934631, “Transcriptomic and genomic studies classify NKL54 as a histone deacetylase inhibitor with indirect influence on MEF2-dependent transcription” (Nucleic Acids Research, 2022)
These are yes or no findings as the source states them, for the method shown. Binding seen in cells or lysates may run through a third protein. Some results given as binding are weak or reduced against the parent protein; the word gives no strength.

Chains of the proteins cited; added tags and fusions are not shown.
UniProt P56524: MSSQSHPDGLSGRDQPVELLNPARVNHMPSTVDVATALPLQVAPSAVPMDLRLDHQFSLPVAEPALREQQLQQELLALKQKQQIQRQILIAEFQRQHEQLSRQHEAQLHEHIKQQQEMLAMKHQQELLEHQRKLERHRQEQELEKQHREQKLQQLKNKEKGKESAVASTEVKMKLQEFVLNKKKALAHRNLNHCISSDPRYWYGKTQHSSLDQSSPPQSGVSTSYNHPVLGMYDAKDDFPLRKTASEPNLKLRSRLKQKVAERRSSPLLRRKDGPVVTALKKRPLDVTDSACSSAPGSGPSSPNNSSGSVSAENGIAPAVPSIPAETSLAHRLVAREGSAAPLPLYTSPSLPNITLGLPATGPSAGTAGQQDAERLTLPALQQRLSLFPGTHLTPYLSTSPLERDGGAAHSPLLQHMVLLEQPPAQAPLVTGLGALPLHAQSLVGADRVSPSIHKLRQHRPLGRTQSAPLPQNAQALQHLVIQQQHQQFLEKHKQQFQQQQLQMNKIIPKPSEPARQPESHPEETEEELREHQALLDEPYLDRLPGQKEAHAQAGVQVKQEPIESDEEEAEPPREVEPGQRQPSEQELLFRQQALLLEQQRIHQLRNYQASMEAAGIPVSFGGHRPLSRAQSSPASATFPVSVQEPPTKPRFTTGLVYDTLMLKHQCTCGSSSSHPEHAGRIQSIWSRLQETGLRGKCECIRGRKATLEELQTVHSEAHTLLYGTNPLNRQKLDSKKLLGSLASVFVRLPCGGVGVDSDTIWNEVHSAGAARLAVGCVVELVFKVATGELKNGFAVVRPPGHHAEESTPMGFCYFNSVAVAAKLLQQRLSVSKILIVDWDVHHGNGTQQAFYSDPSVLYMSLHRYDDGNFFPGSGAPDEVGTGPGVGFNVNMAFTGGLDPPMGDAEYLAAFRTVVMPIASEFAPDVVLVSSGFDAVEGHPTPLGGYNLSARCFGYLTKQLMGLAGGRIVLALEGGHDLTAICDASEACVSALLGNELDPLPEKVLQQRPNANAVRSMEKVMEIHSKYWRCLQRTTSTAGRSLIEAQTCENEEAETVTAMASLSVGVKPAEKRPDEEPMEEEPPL
UniProt Q14814: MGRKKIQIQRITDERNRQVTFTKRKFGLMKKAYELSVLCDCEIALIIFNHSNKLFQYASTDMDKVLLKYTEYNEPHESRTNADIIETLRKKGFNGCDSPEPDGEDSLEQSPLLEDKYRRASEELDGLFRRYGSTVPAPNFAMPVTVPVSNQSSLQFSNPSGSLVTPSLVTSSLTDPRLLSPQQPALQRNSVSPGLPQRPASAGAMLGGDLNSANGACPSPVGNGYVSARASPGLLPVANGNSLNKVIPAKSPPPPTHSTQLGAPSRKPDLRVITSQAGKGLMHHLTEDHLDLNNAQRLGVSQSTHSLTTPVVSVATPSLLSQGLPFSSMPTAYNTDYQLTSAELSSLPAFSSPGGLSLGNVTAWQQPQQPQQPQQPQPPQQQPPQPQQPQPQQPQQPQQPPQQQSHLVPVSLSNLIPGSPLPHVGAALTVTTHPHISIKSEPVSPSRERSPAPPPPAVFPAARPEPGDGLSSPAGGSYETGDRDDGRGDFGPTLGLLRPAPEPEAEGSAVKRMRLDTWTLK

Molecular target: HDAC4 (human (endogenous in SK-UT-1)) (UniProt P56524)
Assay: co-IP; SK-UT-1 cells treated 12 h with DMSO, SAHA 2.5 μM or NKL54 5 μM; hypotonic lysis buffer with 1% Triton X-100; immunoprecipitation with 1.5 μg anti-HDAC4 antibody, immunoblot with anti-MEF2D

MEF2D (from UniProt Q14814 1-521)
binding: binds
